{"source": "the supplement of paper PMC12889115", "system": "Salmonella enterica serovar Typhimurium SL1344", "assay": "bacterial growth OD600 after 18 h with compound and polymyxin B; higher = more bacterial growth (less inhibition)", "conditions": "50 µM, Mueller-Hinton broth", "note": "The other results are listed elsewhere or left out. These are raw signals, not scaled to a control.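 Primary screen: polymyxin B was added at a level permeabilizing Salmonella outer membranes while sparing inner membranes. DMSO wells, both with and without polymyxin B, established maximum growth. Plate-to-plate variation meant each plate was ranked on its own, and the lowest-OD600 compounds were selected as hits.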"}
{"smiles": "CCN(Cc1ccccc1)C(=O)c1cc(COc2ccc(Cl)cc2OC)on1", "values": [{"measurement": "bacterial growth OD600", "setting": "polymyxin B 1 µg/mL", "result": 1.22}]}
{"smiles": "C=CCC(=O)N1CCCC(CCCc2ccccc2)(C(=O)OCC)C1", "note": "(stereo unspecified)", "values": [{"measurement": "bacterial growth OD600", "setting": "polymyxin B 1 µg/mL", "result": 0.011}]}
{"smiles": "COc1cccc(CCC(=O)N2CCC(CCC(=O)N(C)Cc3ccccc3)CC2)c1", "values": [{"measurement": "bacterial growth OD600", "setting": "polymyxin B 1 µg/mL", "result": 0.937}]}
{"smiles": "COc1ccccc1CCN1CCC(CN(C)C(=O)CCSC)CC1", "values": [{"measurement": "bacterial growth OD600", "setting": "polymyxin B 1 µg/mL", "result": 1.15}]}
{"smiles": "Cc1ccc(-c2n[nH]cc2CN2CCC(OCc3cccnc3)CC2)cc1C", "values": [{"measurement": "bacterial growth OD600", "setting": "polymyxin B 1 µg/mL", "result": 0.927}]}
{"smiles": "COc1ccc(CNC2COc3c(cccc3OC)C2)c(F)c1", "note": "(stereo unspecified)", "values": [{"measurement": "bacterial growth OD600", "setting": "polymyxin B 0.75 µg/mL", "result": 0.873}]}
{"smiles": "CCOC(=O)C1(Cc2ccccc2C)CCCN(C(=O)Nc2ccc3c(c2)OCO3)C1", "note": "(stereo unspecified)", "values": [{"measurement": "bacterial growth OD600", "setting": "polymyxin B 1 µg/mL", "result": 0.97}]}
{"smiles": "CN(C(=O)Cn1cccn1)C(Cc1ccccc1)C1CCN(C(=O)c2cccc(-n3cccn3)c2)CC1", "note": "(stereo unspecified)", "values": [{"measurement": "bacterial growth OD600", "setting": "polymyxin B 0.75 µg/mL", "result": 0.904}]}
{"smiles": "O=C(NC1CCOC1)c1cc(COc2ccc3c(c2)CCCC3)on1", "note": "(stereo unspecified)", "values": [{"measurement": "bacterial growth OD600", "setting": "polymyxin B 0.75 µg/mL", "result": 0.009}]}
{"smiles": "CO[C@H]1[C@H](NC(=O)c2ccco2)c2ccccc2C12CCN(Cc1ccc(C)c(C)c1)CC2", "values": [{"measurement": "bacterial growth OD600", "setting": "polymyxin B 0.75 µg/mL", "result": 0.731}]}
{"smiles": "CCc1n[nH]c(C(=O)N2CCC(n3nccc3NC(=O)C(C)(C)C)CC2)c1C", "values": [{"measurement": "bacterial growth OD600", "setting": "polymyxin B 1 µg/mL", "result": 0.952}]}
{"smiles": "O=C(C1CC12CCC2)N1CCc2onc(-c3ccc4c(c3)OCO4)c2C1", "note": "(stereo unspecified)", "values": [{"measurement": "bacterial growth OD600", "setting": "polymyxin B 0.75 µg/mL", "result": 0.007}]}
{"smiles": "COC1CCCN(C(=O)CC2(c3ccccc3C)CC(=O)N(Cc3cccnc3)C2=O)C1", "note": "(stereo unspecified)", "values": [{"measurement": "bacterial growth OD600", "setting": "polymyxin B 0.75 µg/mL", "result": 0.845}]}
{"smiles": "O=C(NCc1ccco1)NC1CC(=O)N(Cc2cccc3ccccc23)C1", "note": "(stereo unspecified)", "values": [{"measurement": "bacterial growth OD600", "setting": "polymyxin B 1 µg/mL", "result": 0.663}]}
{"smiles": "CCO[C@H]1[C@H](NC(=O)c2cccnc2)c2ccccc2C12CCN(C(=O)c1n[nH]c3ccccc13)CC2", "values": [{"measurement": "bacterial growth OD600", "setting": "polymyxin B 0.75 µg/mL", "result": 0.877}]}
{"smiles": "Cc1cnc(SCCN2CCOCC2)nc1C1CCCN(C(=O)COc2ccccc2)C1", "note": "(stereo unspecified)", "values": [{"measurement": "bacterial growth OD600", "setting": "polymyxin B 0.75 µg/mL", "result": 0.95}]}
{"smiles": "CC(=O)NCC1CCCN(C(=O)c2cc(COc3c(C)cccc3C)on2)C1", "note": "(stereo unspecified)", "values": [{"measurement": "bacterial growth OD600", "setting": "polymyxin B 1 µg/mL", "result": 1.01}]}
{"smiles": "COc1ccc(CCCN2C(=O)O[C@@H]3CN(Cc4[nH]cnc4C)C[C@@H]32)cc1", "values": [{"measurement": "bacterial growth OD600", "setting": "polymyxin B 1 µg/mL", "result": 1}]}
{"smiles": "Cc1ccc(Cl)cc1N1CCN(C(=O)c2cn(CC3CCCO3)nn2)CC1", "note": "(stereo unspecified)", "values": [{"measurement": "bacterial growth OD600", "setting": "polymyxin B 1 µg/mL", "result": 0.017}]}
{"smiles": "O=C(c1cn(CCc2ccccc2)nn1)N1CCC(c2ccccc2Cl)C1", "note": "(stereo unspecified)", "values": [{"measurement": "bacterial growth OD600", "setting": "polymyxin B 1 µg/mL", "result": 0.134}]}
{"smiles": "CN(CC1CCOCC1)c1ccc(-c2nc(COc3ccccc3)no2)cn1", "values": [{"measurement": "bacterial growth OD600", "setting": "polymyxin B 1 µg/mL", "result": 0.854}]}
{"smiles": "CCOC(=O)C1(CCOc2ccccc2)CCN(Cc2cccc(OC)c2OC)CC1", "values": [{"measurement": "bacterial growth OD600", "setting": "polymyxin B 1 µg/mL", "result": 0.908}]}
{"smiles": "Fc1cccc(C2CCN(CC3CC3)c3ccccc3S2)c1", "note": "(stereo unspecified)", "values": [{"measurement": "bacterial growth OD600", "setting": "polymyxin B 0.75 µg/mL", "result": 0.003}]}
{"smiles": "CCC(=O)N[C@@H]1c2ccccc2C2(CCN(C(=O)c3cnn(CC)c3)CC2)[C@H]1OCc1cccnc1", "values": [{"measurement": "bacterial growth OD600", "setting": "polymyxin B 0.75 µg/mL", "result": 0.856}]}
{"smiles": "CCCc1cc(CNC(=O)c2ccc(NC3CCCC3)nc2)on1", "values": [{"measurement": "bacterial growth OD600", "setting": "polymyxin B 1 µg/mL", "result": 0.815}]}
{"smiles": "COCCCN1C(=O)CC(CC(=O)N2CCC(c3ccc(F)cc3)C2)(c2ccccc2Cl)C1=O", "note": "(stereo unspecified)", "values": [{"measurement": "bacterial growth OD600", "setting": "polymyxin B 0.75 µg/mL", "result": 0.017}]}
{"smiles": "c1ccc(NC2CCCN(Cc3ccc4c(c3)CCO4)C2)cc1", "note": "(stereo unspecified)", "values": [{"measurement": "bacterial growth OD600", "setting": "polymyxin B 1 µg/mL", "result": 0.788}]}
{"smiles": "COc1ccc2c(C)nc(N3CCCC(C(=O)NC4CC4)C3)nc2c1", "note": "(stereo unspecified)", "values": [{"measurement": "bacterial growth OD600", "setting": "polymyxin B 0.75 µg/mL", "result": 0.78}]}
{"smiles": "O=C(CCC1CCN(C(=O)c2ccc(Cn3cnnn3)cc2)CC1)NC1CC1", "values": [{"measurement": "bacterial growth OD600", "setting": "polymyxin B 1 µg/mL", "result": 1.01}]}
{"smiles": "COC(=O)[C@H](Cc1ccccc1)NC(=O)CCC1(Cc2ccc(SC)cc2)CCC(=O)N1", "note": "(stereo partly specified)", "values": [{"measurement": "bacterial growth OD600", "setting": "polymyxin B 0.75 µg/mL", "result": 0.822}]}
{"smiles": "CCC(=O)N1CCC(C(=O)Nc2ccc(Oc3ccccc3F)cc2)CC1", "values": [{"measurement": "bacterial growth OD600", "setting": "polymyxin B 1 µg/mL", "result": 0.909}]}
